Further values from the same series stand in other lists.
Columns and labels:
Format in all cases: cell-based
Conditions in all cases: U-87MG ATCC
[1] = Inhibition of RTK/PI3K/AKT/mTOR signaling in human U87 cells assessed as down regulation of ZNF845 gene expression at cytotoxic IC50 measured after 48 hrs relative to control
[2] = Inhibition of RTK/PI3K/AKT/mTOR signaling in human U87 cells assessed as down regulation of AP5B1 gene expression at cytotoxic IC50 measured after 48 hrs relative to control
[3] = Inhibition of RTK/PI3K/AKT/mTOR signaling in human U87 cells assessed as down regulation of BLM gene expression at cytotoxic IC50 measured after 48 hrs relative to control
[4] = Inhibition of RTK/PI3K/AKT/mTOR signaling in human U87 cells assessed as down regulation of AMOTL2 gene expression at cytotoxic IC50 measured after 48 hrs relative to control
[5] = Inhibition of RTK/PI3K/AKT/mTOR signaling in human U87 cells assessed as down regulation of CALM1 gene expression at cytotoxic IC50 measured after 48 hrs relative to control
[6] = Inhibition of RTK/PI3K/AKT/mTOR signaling in human U87 cells assessed as down regulation of VPS45 gene expression at cytotoxic IC50 measured after 48 hrs relative to control
[7] = Inhibition of RTK/PI3K/AKT/mTOR signaling in human U87 cells assessed as down regulation of TSR2 gene expression at cytotoxic IC50 measured after 48 hrs relative to control
[8] = Inhibition of RTK/PI3K/AKT/mTOR signaling in human U87 cells assessed as down regulation of HBEGF gene expression at cytotoxic IC50 measured after 48 hrs relative to control
[9] = Inhibition of RTK/PI3K/AKT/mTOR signaling in human U87 cells assessed as down regulation of KIF1B gene expression at cytotoxic IC50 measured after 48 hrs relative to control
[10] = Inhibition of RTK/PI3K/AKT/mTOR signaling in human U87 cells assessed as down regulation of UFL1 gene expression at cytotoxic IC50 measured after 48 hrs relative to control
[11] = Inhibition of RTK/PI3K/AKT/mTOR signaling in human U87 cells assessed as down regulation of CHPF gene expression at cytotoxic IC50 measured after 48 hrs relative to control
[12] = Inhibition of RTK/PI3K/AKT/mTOR signaling in human U87 cells assessed as down regulation of INPP4A gene expression at cytotoxic IC50 measured after 48 hrs relative to control
[13] = Inhibition of RTK/PI3K/AKT/mTOR signaling in human U87 cells assessed as down regulation of ACO2 gene expression at cytotoxic IC50 measured after 48 hrs relative to control
[14] = Inhibition of RTK/PI3K/AKT/mTOR signaling in human U87 cells assessed as down regulation of POLE3 gene expression at cytotoxic IC50 measured after 48 hrs relative to control
[15] = Inhibition of RTK/PI3K/AKT/mTOR signaling in human U87 cells assessed as down regulation of GPN3 gene expression at cytotoxic IC50 measured after 48 hrs relative to control
[16] = Inhibition of RTK/PI3K/AKT/mTOR signaling in human U87 cells assessed as down regulation of EXOSC9 gene expression at cytotoxic IC50 measured after 48 hrs relative to control
[17] = Inhibition of RTK/PI3K/AKT/mTOR signaling in human U87 cells assessed as down regulation of SLC4A1AP gene expression at cytotoxic IC50 measured after 48 hrs relative to control
[18] = Inhibition of RTK/PI3K/AKT/mTOR signaling in human U87 cells assessed as down regulation of DNAJC1 gene expression at cytotoxic IC50 measured after 48 hrs relative to control
[19] = Inhibition of RTK/PI3K/AKT/mTOR signaling in human U87 cells assessed as down regulation of CHEK1 gene expression at cytotoxic IC50 measured after 48 hrs relative to control
[20] = Inhibition of RTK/PI3K/AKT/mTOR signaling in human U87 cells assessed as down regulation of SLC25A22 gene expression at cytotoxic IC50 measured after 48 hrs relative to control
[21] = Inhibition of RTK/PI3K/AKT/mTOR signaling in human U87 cells assessed as down regulation of MAD2L2 gene expression at cytotoxic IC50 measured after 48 hrs relative to control
[22] = Inhibition of RTK/PI3K/AKT/mTOR signaling in human U87 cells assessed as down regulation of FLNA gene expression at cytotoxic IC50 measured after 48 hrs relative to control
[23] = Inhibition of RTK/PI3K/AKT/mTOR signaling in human U87 cells assessed as down regulation of UBR2 gene expression at cytotoxic IC50 measured after 48 hrs relative to control
[24] = Inhibition of RTK/PI3K/AKT/mTOR signaling in human U87 cells assessed as down regulation of DCAF12 gene expression at cytotoxic IC50 measured after 48 hrs relative to control
[25] = Inhibition of RTK/PI3K/AKT/mTOR signaling in human U87 cells assessed as up regulation of TESMIN gene expression at cytotoxic IC50 measured after 48 hrs relative to control
[26] = Inhibition of RTK/PI3K/AKT/mTOR signaling in human U87 cells assessed as up regulation of INSIG2 gene expression at cytotoxic IC50 measured after 48 hrs relative to control
[27] = Inhibition of RTK/PI3K/AKT/mTOR signaling in human U87 cells assessed as up regulation of churchill domain containing 1 gene expression at cytotoxic IC50 measured after 48 hrs relative to control
[28] = Inhibition of RTK/PI3K/AKT/mTOR signaling in human U87 cells assessed as up regulation of prolyl 4-hydroxylase subunit alpha 2 gene expression at cytotoxic IC50 measured after 48 hrs relative to control
[29] = Inhibition of RTK/PI3K/AKT/mTOR signaling in human U87 cells assessed as up regulation of EGF like domain multiple 7 gene expression at cytotoxic IC50 measured after 48 hrs relative to control
[30] = Inhibition of RTK/PI3K/AKT/mTOR signaling in human U87 cells assessed as up regulation of spermatogenesis associated 20 gene expression at cytotoxic IC50 measured after 48 hrs relative to control
[31] = Inhibition of RTK/PI3K/AKT/mTOR signaling in human U87 cells assessed as up regulation of CAVIN1 gene expression at cytotoxic IC50 measured after 48 hrs relative to control
[32] = Inhibition of RTK/PI3K/AKT/mTOR signaling in human U87 cells assessed as up regulation of LSM14A gene expression at cytotoxic IC50 measured after 48 hrs relative to control
[33] = Inhibition of RTK/PI3K/AKT/mTOR signaling in human U87 cells assessed as up regulation of UBE2R2 gene expression at cytotoxic IC50 measured after 48 hrs relative to control

CC(=O)C(=NNc1ccccc1C#N)C(C)=O
log2FC [1]: -1.61
log2FC [2]: -1.5
log2FC [3]: -1.34
log2FC [4]: -1.34
log2FC [5]: -1.04
log2FC [6]: -0.983
log2FC [7]: -0.947
log2FC [8]: -0.944
log2FC [9]: -0.898
log2FC [10]: -0.866
log2FC [11]: -0.847
log2FC [12]: -0.819
log2FC [13]: -0.803
log2FC [14]: -0.794
log2FC [15]: -0.736
log2FC [16]: -0.731
log2FC [17]: -0.715
log2FC [18]: -0.701
log2FC [19]: -0.679
log2FC [20]: -0.638
log2FC [21]: -0.632
log2FC [22]: -0.589
log2FC [23]: -0.567
log2FC [24]: -0.505
log2FC [25]: 2.06
log2FC [26]: 1.92
log2FC [27]: 1.28
log2FC [28]: 1.15
log2FC [29]: 0.9
log2FC [30]: 0.827
log2FC [31]: 0.555
log2FC [32]: 0.488
log2FC [33]: 0.487

— ChEMBL document CHEMBL4316593 (Eur J Med Chem, 2019)
